What was measured:
Type in all cases: in vivo
[1] = system: lactating dairy cows; test: New York/Cornell Study: dietary monensin fed to lactating dairy cows
Text: Lactating dairy cows were used for the instant example. Methods: One-hundred ninety-two lactating cows (120±50 DIM) were randomly assigned to 12 pens each including 16 cows.

[2] = system: lactating Holstein cows; test: Wisconsin Study: dietary monensin fed to lactating cows for 9 weeks
Description: Methods: […] All cows received 11 g/ton Rumensin for a 5-week covariate period after which pens received 1 of 4 dietary treatments (n=3) formulated to provide 0 g/ton (Control, “CON”), 11 g/ton (R11), 14.5 g/ton (R14.5), or 18 g/ton (R18) of Rumensin for 9 weeks. Basal diet was 54% forage and 27% Neutral Detergent Fiber (NDF), 29% starch, and 2.3% Rumen Unsaturated Fatty Acid Load (RUFAL). The pen was the experimental unit, and data were analyzed using the Fit Model Procedure of JMP with treatment as a fixed effect and pen as a random effect. LS-means were determined and contrasts of CON vs. R11, CON vs. R14.5, CON vs. R18, and linear and quadratic effects were tested.

[3] = system: lactating dairy cattle; test: Combined analysis of Wisconsin and New York Studies; details: final week
Description: The instant example provides the combined analysis of data from the two studies (Wisconsin Study and New York Study). The two studies were combined statistically to explore effects on milk production efficiency and other variables associated with efficiency. By effectively doubling pen numbers an increase in power of the analysis was provided. Analysis of these combined datasets was performed in various ways, with the inclusion of either weekly milk yield averages or sample day milk yields to calculate milk component yields, component corrected yields, and feed efficiency. Further, the combined dataset was analyzed using data collected from all experimental weeks as well as the exclusion of data from the first three weeks of experimental treatment feeding. This was done to exclude any shifts in response variables while the rumen environment was adapting to the treatment provided. Materials & Methods: All data from both experimental locations were combined and statistically analyzed as a longitudinal experiment design through SAS version 9.4 (SAS Institute Inc., Cary, N.C.). Experimental response variables, excluding body condition score (BCS), were analyzed using PROC MIXED and […] statements to compare treatment means using the following model: γijklm=μ+[…] Where γijklm=an individual observation of the response variable analyzed, Ti=the i^th dietary treatment, Wj=the j^th experimental week, TWij=the interaction of the i^th treatment with the j^th experimental week, Lk=the k^th experimental location, Pl(i*k)=the 1th pen within the i^th treatment and k^th experimental location, WPjl(i*k)=the interaction of the j^th experimental week with the 1th pen within the i^th treatment and k^th experimental location, Cm(l*i*k)=the m^th cow within the 1th pen, the i^th treatment and k^th experimental location, BXmlik=the covariate observation obtained after three weeks of feeding a common diet to all treatment groups, and ∈ijklmn=the random error of the m^th cow within the 1th pen, the i^th treatment and the k^th location. […]

CC[C@@]1([C@@H]2O[C@@H]([C@H]3O[C@@](O)(CO)[C@H](C)C[C@@H]3C)C[C@@H]2C)CC[C@H]([C@]2(C)CC[C@]3(C[C@H](O)[C@@H](C)[C@@H]([C@@H](C)[C@@H](OC)[C@H](C)C(=O)O)O3)O2)O1 [monensin]
Weight Gain ([1]; R11, 11 g/ton): 0.60 lb/d
Weight Gain ([1]; R14.5, 14.5 g/ton): 0.35 lb/d
Weight Gain ([1]; R18, 18 g/ton): 0.97 lb/d
Weight Gain ([2]; R11, 11 g/ton): 0.90 lb/d
Weight Gain ([2]; R14.5, 14.5 g/ton): 0.98 lb/d
Weight Gain ([2]; R18, 18 g/ton): 1.17 lb/d
Final BCS ([3]; 11 g/ton): 2.93
Final BCS ([3]; 14.5 g/ton): 2.96
Final BCS ([3]; 18 g/ton): 2.87

From patent publication US20230255927A1 (ELANCO TIERGESUNDHEIT AG, priority 2022, published 2023)
